According to paper PMC10564737, “Structure-based design of a phosphotyrosine-masked covalent ligand targeting the E3 ligase SOCS2” (Nature Communications, 2023):
“And” between values parts separate entries of the source, which are not always exact repeats. Equal entries are not always repeated. The source gives many values for each of these; only a part stands here.

Chains of the proteins cited; added tags and fusions are not shown. Residues count along the entry.
UniProt O14508, 32-198: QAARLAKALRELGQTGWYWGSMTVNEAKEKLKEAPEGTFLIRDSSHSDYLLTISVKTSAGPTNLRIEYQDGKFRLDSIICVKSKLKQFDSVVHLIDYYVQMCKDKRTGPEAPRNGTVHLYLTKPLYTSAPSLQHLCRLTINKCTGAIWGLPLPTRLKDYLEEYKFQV

Molecular target: T1, SBC2 (Homo sapiens, UniProt O14508)
T1 construct: SOCS2 (amino acids 32–198); His6 (N, cleaved yes); made in house; host or cells: E. coli BL21(DE3)
Experiment: Covalent fluorescence polarization (FP) probe displacement assay
Assay type: binding
Description: With the specific covalent modification of Cys111 established, we decided to fully characterize MN551 as a covalent SOCS2 inhibitor. […] (Fig. 2g, h, Supplementary Fig. 9). Due to the covalent nature of the competing inhibitor, a time-dependent reduction in the fraction of protein-bound probe is observed. […] This value illustrates reasonable specificity for a covalent inhibitor, with nonetheless scope for future optimization. In addition to characterizing the kinetic covalency parameters, we have also assessed the stability of the MN551 by monitoring its reactivity (half-life >70 min) with reduced glutathione (GSH) (Supplementary Fig. 10)[35].
To monitor the SBC2-ligand binding kinetics we designed a fluorescein-labeled small-molecule probe - compound 26. The fluorescence polarization (anisotropy) of a threefold serial dilution of 50 µM SBC2 in 10 nM of the probe in 100 mM HEPES pH 7.5, 50 mM NaCl, 0.5 mM TCEP, 2% DMSO was measured to determine the KL (Supplementary Fig. 9A) (BMG Labtech PHERAstar – firmware v1.33). Protein titration and the curves were fitted using GraphPad Prism 9, using one-site fitting models to determine the probe binding constant, KL. Samples were run in triplicate in 384 well plates, using a total volume per well of 16 μL. The bound fraction of the probe is measure using the equation:1 Fb=Af−A/Af−Ab Where,
A time-dependent reduction in probe anisotropy were measured for a 2-fold serial dilution of […] compound MN551 in 10 nM probe +300 μM SBC2. To determine the initial reversible binding affinity, the initial bound fraction of the probe at time = 0, Fbo (the y-intercept in Fb v/s Time plot, Supplementary Fig. 9B) was plotted against MN551 concentration, and the obtained IC50 is then converted to Ki (Supplementary Fig. 9C)[17]. The slope from Fb versus time graph when divided by Fbo gives rate of covalency, kobs. A plot of kobs v/s MN551 concentration using Michaelis–Menten model of GraphPad Prism 9, provides the parameters kinact (maximum potential rate of inactivation) and KI (concentration of MN551 at which kobs = kinact/2) (Supplementary Fig. 9D, E).
The observed first-order rate constant, kobs is related to KI and kinact by the equation:2 kobs=kinactI/KI+I
At [I]«[KI] the above equation is converted to3 […]
The slope from the plot of kobs against concentration of MN551 gives us the covalent efficiency parameter kinact/KI (Supp Fig. 9F)[30],[33].

[1] = MN551 132.81 nM; Cycle 9 (40 min)
[2] = MN551 132.81 nM; Cycle 10 (45 min)
[3] = MN551 132.81 nM; Cycle 11 (50 min)
[4] = MN551 132.81 nM; Cycle 12 (55 min); n=1
[5] = MN551 132.81 nM; Cycle 13 (60 min); n=1
[6] = MN551 132.81 nM; Cycle 14 (65 min); n=1
[7] = MN551 132.81 nM; Cycle 15 (70 min); n=1
[8] = MN551 132.81 nM; Cycle 16 (75 min); n=1
[9] = MN551 185.934 nM, Cycle 8 (35 min)
[10] = MN551 185.934 nM, Cycle 9 (40 min)
[11] = MN551 185.934 nM, Cycle 10 (45 min)
[12] = MN551 185.934 nM, Cycle 11 (50 min)
[13] = MN551 185.934 nM, Cycle 16 (75 min), n=1
[14] = MN551 185.934 nM, Cycle 17 (80 min), n=1
[15] = MN551 185.934 nM, Cycle 18 (85 min), n=1
[16] = MN551 185.934 nM; Cycle 7 (30 min)
[17] = MN551 185.934 nM; Cycle 8 (35 min)
[18] = MN551 185.934 nM; Cycle 9 (40 min)
[19] = MN551 185.934 nM; Cycle 10 (45 min)
[20] = MN551 185.934 nM; Cycle 11 (50 min)
[21] = MN551 185.934 nM; Cycle 12 (55 min); n=1
[22] = MN551 185.934 nM; Cycle 13 (60 min); n=1
[23] = MN551 185.934 nM; Cycle 14 (65 min); n=1
[24] = MN551 185.934 nM; Cycle 15 (70 min); n=1
[25] = MN551 185.934 nM; Cycle 16 (75 min); n=1
[26] = MN551 195.312 nM, Cycle 8 (35 min)
[27] = MN551 195.312 nM, Cycle 9 (40 min)
[28] = MN551 195.312 nM, Cycle 10 (45 min)

O=C(CCl)Nc1cccc(CNC(=O)[C@H](Cc2ccc(OP(=O)(O)O)cc2)NC(=O)Cc2ccc(F)cc2)c1 [MN551]
Anisotropy data 485,520,520 [1]: 267.3 and 263.4 and 263.6 | Fb [1]: 1.0058 and 1.047 and 1.034 and 0.9835 and 0.9433 and 0.9593 | Anisotropy [2]: 274.9 and 273.2 and 271.4 | Anisotropy data 485,520,520 [2]: 269.8 and 264.2 and 264.3 | Fb [2]: 1.015 and 1.025 and 1.048 and 0.9849 and 0.949 and 0.9558 | Anisotropy [3]: 272.7 and 271.9 and 269.8 | Fb [3]: 0.9723 and 0.9527 and 0.961 | Anisotropy (MN551 132.81 nM; Cycle 11 (50 min); n=1): 266.6 and 259.3 and 264.4 | Anisotropy [4]: 265.7 and 259.8 and 261.2 | Anisotropy based on Raw Data (485) [4]: 275.3 and 273.6 and 267.2 | Anisotropy [5]: 266.2 and 258.7 and 258.4 | Anisotropy based on Raw Data (485) [5]: 276 and 273.1 and 267.8 | Anisotropy [6]: 263.1 and 257 and 258 | Anisotropy based on Raw Data (485) [6]: 272.2 and 271.8 and 265.3 | Anisotropy [7]: 263.9 and 255.7 and 259 | Anisotropy based on Raw Data (485) [7]: 274.4 and 271 and 267.7 | Anisotropy [8]: 261.1 and 257.1 and 257 | Anisotropy based on Raw Data (485) [8]: 270.6 and 272.1 and 263.7 | Anisotropy data 485,520,520 (MN551 132.81 nM; Cycle 19 (90 min); n=1): 266.9 and 265.6 and 265 | Anisotropy data 485,520,520 (MN551 132.81 nM; Cycle 20 (95 min); n=1): 267.8 and 264.8 and 263.2 | Fb (MN551 185.934 nM, Cycle 7 (30 min)): 0.8947 and 0.8274 and 0.875 | Anisotropy based on Raw Data (485) [9]: 278.3 and 274.5 and 271.2 | Fb [9]: 0.8507 and 0.8413 and 0.8575 | Anisotropy based on Raw Data (485) [10]: 275.7 and 275.4 and 267.9 | Fb [10]: 0.8557 and 0.8458 and 0.8527 | Anisotropy based on Raw Data (485) [11]: 274.8 and 273.1 and 267.2 | Fb [11]: 0.8791 and 0.8583 and 0.8495 | Anisotropy based on Raw Data (485) [12]: 273.1 and 272.9 and 266.3 | Fb [12]: 0.8806 and 0.8612 and 0.8383 | Anisotropy (MN551 185.934 nM, Cycle 13 (60 min), n=1): 270.4 and 268.1 and 266.4 | Anisotropy (MN551 185.934 nM, Cycle 14 (65 min), n=1): 268.3 and 267.6 and 265.6 | Anisotropy (MN551 185.934 nM, Cycle 15 (70 min), n=1): 268.2 and 266 and 265.1 | Anisotropy [13]: 267 and 265.7 and 262.1 | Normalised anisotropy (0 nM MN551 = 1, free probe = 0) [13]: 0.9197 and 0.9304 and 0.891 | Anisotropy [14]: 264.3 and 265.8 and 263 | Anisotropy based on Raw Data (485) [14]: 269 and 266.3 and 264 | Normalised anisotropy (0 nM MN551 = 1, free probe = 0) [14]: 0.9183 and 0.9237 and 0.9268 | Anisotropy [15]: 266.2 and 263.8 and 260.7 | Normalised anisotropy (0 nM MN551 = 1, free probe = 0) [15]: 0.9468 and 0.9195 and 0.9303 | Fb, fraction bound (MN551 185.934 nM; Cycle 4 (15 min)): 0.9745 and 0.9717 and 0.9847 | Fb, fraction bound (MN551 185.934 nM; Cycle 5 (20 min)): 0.9684 and 0.9475 and 0.9883 | Fb, fraction bound (MN551 185.934 nM; Cycle 6 (25 min)): 0.9397 and 0.9626 and 0.9677 | Anisotropy data 485,520,520 [16]: 271.6 and 259.3 and 263.7 | Fb [16]: 0.998 and 1.002 and 1.058 | Fb, fraction bound [16]: 0.9338 and 0.9401 and 0.9533 | Anisotropy [17]: 273.9 and 274.1 and 271.1 | Anisotropy data 485,520,520 [17]: 267.5 and 260.6 and 263.3 | Fb [17]: 0.9943 and 1 and 1.048 and 0.9739 and 0.951 and 0.9562 | Anisotropy [18]: 271.4 and 270.3 and 271 | Anisotropy data 485,520,520 [18]: 267.9 and 259.7 and 261.7 | Fb [18]: 0.9807 and 1.029 and 1.006 and 0.9574 and 0.9103 and 0.9506 | Anisotropy [19]: 271.8 and 272.5 and 270.9 | Anisotropy data 485,520,520 [19]: 267 and 258.5 and 259.4 | Fb [19]: 0.9961 and 1.001 and 1.027 and 0.9557 and 0.9425 and 0.9511 | Anisotropy [20]: 271.5 and 268.3 and 268.1 | Fb [20]: 0.9609 and 0.9187 and 0.9448 | Anisotropy (MN551 185.934 nM; Cycle 11 (50 min); n=1): 267 and 260.7 and 257.4 | Anisotropy [21]: 264.6 and 257.3 and 257.1 | Anisotropy based on Raw Data (485) [21]: 272.2 and 272 and 265.5 | Anisotropy [22]: 263.3 and 254.6 and 258.3 | Anisotropy based on Raw Data (485) [22]: 275 and 271.6 and 267 | Anisotropy [23]: 264.5 and 255.7 and 256.1 | Anisotropy based on Raw Data (485) [23]: 272.1 and 268.8 and 264 | Anisotropy [24]: 261.8 and 255.7 and 253.9 | Anisotropy based on Raw Data (485) [24]: 270.4 and 267.6 and 263.4 | Anisotropy [25]: 261 and 254.7 and 255.1 | Anisotropy based on Raw Data (485) [25]: 269.3 and 266.9 and 263 | Anisotropy data 485,520,520 (MN551 185.934 nM; Cycle 19 (90 min); n=1): 263.2 and 263.4 and 263.7 | Anisotropy data 485,520,520 (MN551 185.934 nM; Cycle 20 (95 min); n=1): 262.6 and 262.4 and 259.2 | Fb (MN551 195.312 nM, Cycle 7 (30 min)): 0.8753 and 0.9172 and 0.903 | Anisotropy based on Raw Data (485) [26]: 278.8 and 276 and 274.1 | Fb [26]: 0.861 and 0.9289 and 0.9206 | Anisotropy based on Raw Data (485) [27]: 280 and 275.7 and 270.3 | Fb [27]: 0.8638 and 0.943 and 0.8976 | Anisotropy based on Raw Data (485) [28]: 276 and 273.8 and 270.5 | Fb [28]: 0.83 and 0.9149 and 0.9175 | Anisotropy (MN551 195.312 nM, Cycle 13 (60 min), n=1): 271.3 and 273.4 and 270.8 | Anisotropy (MN551 195.312 nM, Cycle 14 (65 min), n=1): 271.6 and 273.5 and 270.5 | Anisotropy (MN551 195.312 nM, Cycle 15 (70 min), n=1): 268.7 and 272.5 | Anisotropy (MN551 195.312 nM, Cycle 16 (75 min), n=1): 269 and 270.6 and 268 | Anisotropy (MN551 195.312 nM, Cycle 17 (80 min), n=1): 266.5 and 267.6 and 268.6
